US6699860B2, “Di-substituted aminomethyl-chroman derivative beta-3 adrenoreceptor agonists” (Bayer Pharmaceuticals Corporation, priority 2000, dated 2004)
Structures were worked out from names or drawings and are uncertain.

By UniProt entry, the sequences of proteins in these tests, tags left out.
UniProt P13945, whole entry: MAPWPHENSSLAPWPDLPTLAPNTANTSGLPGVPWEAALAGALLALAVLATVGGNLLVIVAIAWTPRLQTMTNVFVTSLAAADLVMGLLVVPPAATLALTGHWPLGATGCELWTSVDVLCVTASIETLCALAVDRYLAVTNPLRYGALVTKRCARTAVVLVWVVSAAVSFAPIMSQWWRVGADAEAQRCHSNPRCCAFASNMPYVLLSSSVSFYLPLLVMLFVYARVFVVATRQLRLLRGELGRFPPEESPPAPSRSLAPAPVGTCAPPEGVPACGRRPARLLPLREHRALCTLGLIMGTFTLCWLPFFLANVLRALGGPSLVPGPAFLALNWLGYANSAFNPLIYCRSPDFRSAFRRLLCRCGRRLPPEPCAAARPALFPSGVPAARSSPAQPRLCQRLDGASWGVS

Target: human beta-3-adrenergic receptor (Homo sapiens, UniProt P13945)
Experiment: cAMP production (SPA) in CHO cells stably expressing human beta-3-adrenergic receptor, agonist activity
Settings: read-out: Beta-3 Agonistic Activity, EC50 values; cAMP production in CHO cells expressing human beta-3-adrenergic receptor; compounds binned (≦1 μM or >1 μM); tested form: HCl

| EC50 | Compound |
| --- | --- |
| > 1 µM | CCc1ccccc1SC[C@@H](O)CNC[C@H]1CCc2cc(-c3ccc(C(=O)O)cc3)ccc2O1 |
| ≤ 1 µM | O=C(O)c1ccc(-c2ccc3c(c2)CC[C@H](CNC[C@H](O)COc2ccccc2F)O3)cc1 [Example 253] |
